From paper PMC12122562, “Phase 1 studies of the indenoisoquinolines LMP776 and LMP744 in patients with solid tumors and lymphomas” (Cancer Chemotherapy and Pharmacology, 2025)

How the values were obtained:
[1] = system: advanced, refractory solid tumors or lymphomas; experiment: Phase 1 trial of LMP744: tumor response (RECIST v1.1), cycles completed; format: in vivo, human; conditions: 28-day cycles
Method: (§1) Tumor responses were evaluated by serial CT scans according to RECIST v1.1 criteria. CT scans were performed every other cycle during the first year, then every 3 cycles after the first year. Toxicities associated with LMP776 were evaluated according to criteria specified in CTCAE version 4.0; toxicities associated with LMP744 were evaluated according to the criteria specified in CTCAE version 4.03 (on or before March 31, 2018) or version 5.0 (on or after April 1, 2018). Criteria for all versions can be found at https://ctep.cancer.gov/protocolDevelopment/electronic_applications/ctc.htm. Any patient who received a dose of either agent was considered eligible for toxicity evaluation.

[2] = system: advanced, refractory solid tumors or lymphomas; experiment: Phase 1 trial of LMP776: tumor response (RECIST v1.1), cycles completed; format: in vivo, human; conditions: 28-day cycles
Method: as §1

Compound	Median cycles of treatment completed [1] [cycles]	Range of cycles of treatment completed [1]	Median cycles of treatment completed [2] [cycles]	Range of cycles of treatment completed [2]
COc1cc2c3c(n(CCCNCCO)c(=O)c2cc1OC)-c1cc2c(cc1C3=O)OCO2 [LMP744]	2	1–31 cycles		
COc1cc2c3c(n(CCCn4ccnc4)c(=O)c2cc1OC)-c1cc2c(cc1C3=O)OCO2 [LMP776]			2	1–9 cycles

No dose or concentration is given here for some results.
